Experimental data: PubChem BioAssay AID1259306 (Sanger Institute, 2017)
Purpose: 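Kinase-wide siRNA screen for partners of targeted drugs in colorectal cancer cells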 (primary screen). Cells: human SNU-C5 colorectal cancer cells. Reagents: siRNA pool against human genes. Challenge: DMSO vehicle alone, or one anchor drug: BYL719 at 1 µM, cetuximab at 5 µg/ml or trametinib at 10 nM, given 24 h into the assay. Measured: 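Viability versus non-targeting pool averaged across replicates, given as fraction and robust z-score, and synergy scores for BYL719, cetuximab or trametinib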. Reading the numbers: robust z-score, knock-down alone and viability, knock-down alone: higher = more viable cells; synergy score with BYL719: higher = stronger synthetic lethality with BYL719; synergy score with cetuximab: higher = stronger synthetic lethality with cetuximab. Active means: 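Essential if knock-down without drug gives a robust z-score under -3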. Calls: active = essential (knock-down alone); inactive = no change alone.
This is an unselected part of 794 reagents tested. In the full data, 11 (1.4%) were called active. 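Calls reflect knock-down alone; synergy scores play no part, so knock-downs synergising with a drug can be called no change.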 Unmarked entries are inactive. Viability is capped at 1. Not all columns of the deposit are shown. The record does not give: the amount of reagent, the time to read-out.

| target gene | robust z-score, knock-down alone | viability, knock-down alone | synergy score with BYL719 | synergy score with cetuximab |
| --- | --- | --- | --- | --- |
| IRAK3 (interleukin 1 receptor associated kinase 3) | -1.8 | 0.615 | 0.0271 | 0.0439 |
| AKAP9 (A-kinase anchoring protein 9) | 0.424 | 0.922 | 0.0613 | -0.0778 |
| CDK15 (cyclin dependent kinase 15) | 0.368 | 0.914 | 0.114 | 0.11 |
| STK38 (serine/threonine kinase 38) | -0.513 | 0.793 | -0.118 | 0.0785 |
| KSR2 (kinase suppressor of ras 2) | -2.75 | 0.484 | -0.128 | -0.0612 |
| STK17B (serine/threonine kinase 17b) | 0.989 | 1 | 0.0977 | 0.0501 |
| NEK8 (NIMA related kinase 8) | -0.164 | 0.841 | 0.233 | 0.523 |
| PKLR (pyruvate kinase L/R) | -0.92 | 0.737 | -0.246 | -0.111 |
| HASPIN (histone H3 associated protein kinase) | -1.22 | 0.696 | 0.0681 | -0.0707 |
| FXR1 (FMR1 autosomal homolog 1) | 0.266 | 0.9 | -0.0996 | -0.0782 |
| CAMK1G (calcium/calmodulin dependent protein kinase IG) | 0.687 | 0.958 | 0.15 | 0.251 |
| EGFR (epidermal growth factor receptor) | -0.787 | 0.755 | -0.0358 | -0.113 |
| GALK1 (galactokinase 1) | -2.09 | 0.576 | 0.112 | 0.105 |
| TNIK (TRAF2 and NCK interacting kinase) | -0.363 | 0.814 | -0.146 | -0.186 |
| TCF7L2 (transcription factor 7 like 2) | 0.806 | 0.975 | -0.0252 | 0.119 |
| TTK (TTK protein kinase) | -0.996 | 0.727 | -0.053 | -0.12 |
| AK5 (adenylate kinase 5) | 0.119 | 0.88 | 0.0415 | 0.149 |
| GRK6 (G protein-coupled receptor kinase 6) | -1.15 | 0.706 | -0.187 | -0.113 |
| TWF2 (twinfilin actin binding protein 2) | -1.28 | 0.688 | 0.00318 | 0.0551 |
| IKBKG | 0.952 | 0.995 | 0.142 | 0.233 |
| ELP1 (elongator acetyltransferase complex subunit 1) | 0.822 | 0.977 | -0.0204 | 0.086 |
| PIP5K1B (phosphatidylinositol-4-phosphate 5-kinase type 1 beta) | 0.989 | 1 | 0.106 | 0.159 |
| TP53 (tumor protein p53) | -2.03 | 0.583 | -0.158 | -0.11 |
| ZC3H11A (zinc finger CCCH-type containing 11A) | -0.77 | 0.758 | -0.0881 | 0.0486 |
| DYRK1B | 0.682 | 0.958 | -0.0423 | -0.0423 |
| PIK3R5 (phosphoinositide-3-kinase regulatory subunit 5) | -1.88 | 0.604 | -0.106 | -0.189 |
| CAMK4 (calcium/calmodulin dependent protein kinase IV) | -0.157 | 0.842 | 0.0418 | 0.0304 |
| AKT1 (AKT serine/threonine kinase 1) | 0.887 | 0.986 | 0.279 | 0.18 |
| BRD2 (bromodomain containing 2) | 0.989 | 1 | 0 | 0.238 |
| FLT4 (fms related receptor tyrosine kinase 4) | -2.28 | 0.55 | -0.0558 | 0.144 |
| NRBP2 (nuclear receptor binding protein 2) | -0.544 | 0.789 | 0.114 | 0.263 |
| DGKK (diacylglycerol kinase kappa) | 0.421 | 0.922 | 0.146 | -0.0252 |
| SYK (spleen associated tyrosine kinase) | 0.326 | 0.909 | 0.267 | 0.0348 |
| KDR (kinase insert domain receptor) | 0.622 | 0.949 | 0.0916 | -0.0506 |
| EPHB6 (EPH receptor B6) | -0.125 | 0.847 | 0.0603 | 0.0279 |
| TRIM27 (tripartite motif containing 27) | 0.809 | 0.975 | 0.0553 | 0.115 |
| LIMK2 (LIM domain kinase 2) | 0.795 | 0.973 | 0.0786 | -0.0268 |
| PRKACG (protein kinase cAMP-activated catalytic subunit gamma) | 0.989 | 1 | 0.048 | 0 |
| GNAS (GNAS complex locus) | 0.189 | 0.89 | 0.0491 | 0.0858 |
| LATS2 (large tumor suppressor kinase 2) | 0.713 | 0.962 | 0.157 | 0.135 |
| INSR (insulin receptor) | -0.164 | 0.841 | -0.151 | -0.155 |
| PTK6 (protein tyrosine kinase 6) | 0.801 | 0.974 | 0.246 | 0.2 |
| PTK7 (protein tyrosine kinase 7 (inactive)) | -3.05 (active) | 0.444 | -0.101 | 0.0217 |
| TCF12 (transcription factor 12) | 0.416 | 0.921 | 0.0731 | -0.0519 |
| MAP2K2 (mitogen-activated protein kinase kinase 2) | 0.989 | 1 | 0.282 | 0 |
| CSNK1G1 (casein kinase 1 gamma 1) | -2.22 | 0.558 | -0.0881 | -0.0158 |
| MST1R (macrophage stimulating 1 receptor) | 0.989 | 1 | 0.154 | 0.0181 |
| BLK (BLK proto-oncogene, Src family tyrosine kinase) | 0.989 | 1 | 0.148 | 0 |
| NEK9 (NIMA related kinase 9) | 0.67 | 0.956 | 0.144 | 0.144 |
| IDH2 (isocitrate dehydrogenase (NADP(+)) 2) | 0.208 | 0.892 | 0.0177 | -0.108 |

Active calls, among the entries above:
| target gene | robust z-score, knock-down alone | viability, knock-down alone | synergy score with BYL719 | synergy score with cetuximab |
| --- | --- | --- | --- | --- |
| PTK7 (protein tyrosine kinase 7 (inactive)) | -3.05 (active) | 0.444 | -0.101 | 0.0217 |
